Measured values as given in patent US20210130401A1 (THE REGENTS OF THE UNIVERSITY OF MICHIGAN, priority 2017, published 2021).

Assay: general procedure: hybrid (solid and solution phase) peptide synthesis; 2-chlorotrityl chloride resin (ChemPep, 1 mmol/g); EDCl, HOAt, DIPEA (solution couplings)
Settings: for final purity (method not given): Waters ACQUITY UPLC, reverse-phase SunFire C18 5 um 4.6x150 mm, 0.1% TFA water/CH3CN
[1] = whole synthesis, scale of the general procedure 0.1 mmol, TFA salt
[2] = whole synthesis, over 4 steps, scale of the general procedure 0.1 mmol, TFA salt
[3] = late stage modification step, TFA salt

Row | Substance | final purity (method not given) [1] | step yield [3] | final purity (method not given) [3] | other results
1 | N-((3R,6S,9S,12R)-6-ethyl-9-(3-guanidinopropyl)-12-methyl-3-(naphthalen-1-yl)-2,5,8,11-tetraoxo-1,4,7,10-tetraazacyclotetradecan-12-yl)isobutyramide | >98% | – | – | isolated mass (whole synthesis, TFA salt): 3.3 mg; isolated yield [2]: 6%
2 | N-((3R,6S,9S,12R)-6-ethyl-9-(3-guanidinopropyl)-12-methyl-3-(naphthalen-1-ylmethyl)-2,5,8,11-tetraoxo-1,4,7,10-tetraazacyclotetradecan-12-yl)isobutyramide | – | – | – | isolated yield (whole synthesis, over 4 steps, scale of the general procedure 0.1 mmol, CF3COOH salt): 15%
3 | N-((3R,6S,9S,12R)-6-ethyl-9-(3-guanidinopropyl)-12-methyl-3-(naphthalen-2-yl)-2,5,8,11-tetraoxo-1,4,7,10-tetraazacyclotetradecan-12-yl)isobutyramide | >98% | – | – | isolated mass (whole synthesis, TFA salt): 9 mg; isolated yield [2]: 15%
4 | N-((3R,6S,9S,12R)-6-ethyl-12-methyl-2,5,8,11-tetraoxo-3-phenyl-9-(3-((1,4,5,6-tetrahydropyrimidin-2-yl)amino)propyl)-1,4,7,10-tetraazacyclotetradecan-12-yl)isobutyramide | – | 65% | >98% | –
5 | N-((3R,6S,9S,12R)-6-ethyl-12-methyl-2,5,8,11-tetraoxo-3-phenyl-9-(3-((E)-2-(2,2,2-trifluoroethyl)guanidino)propyl)-1,4,7,10-tetraazacyclotetradecan-12-yl)isobutyramide | >98% | – | – | isolated mass (whole synthesis, CF3COOH salt): 1.1 mg; isolated yield [2]: 2%
6 | N-((3R,6S,9S,12R)-6-ethyl-12-methyl-2,5,8,11-tetraoxo-3-phenyl-9-(3-(pyridin-2-ylamino)propyl)-1,4,7,10-tetraazacyclotetradecan-12-yl)isobutyramide | – | 45% yield | >98% purity | –
7 | N-((3R,6S,9S,12R)-6-ethyl-12-methyl-2,5,8,11-tetraoxo-3-phenyl-9-(3-ureidopropyl)-1,4,7,10-tetraazacyclotetradecan-12-yl)isobutyramide | >98% purity | – | – | isolated mass (whole synthesis, TFA salt): 3.2 mg; isolated yield (whole synthesis, over 3 steps, scale of the general procedure 0.1 mmol, TFA salt): 6% yield over 3 steps
8 | N-((3R,6S,9S,12R)-6-ethyl-12-methyl-2,5,8,11-tetraoxo-3-phenyl-9-((pyridin-2-ylamino)methyl)-1,4,7,10-tetraazacyclotetradecan-12-yl)isobutyramide | – | 54% yield | >98% purity | –
9 | N-((3R,6S,9S,12R)-6-ethyl-12-methyl-3-(naphthalen-2-yl)-2,5,8,11-tetraoxo-9-(3-((1,4,5,6-tetrahydropyrimidin-2-yl)amino)propyl)-1,4,7,10-tetraazacyclotetradecan-12-yl)isobutyramide | – | 68% | >98% | –
10 | N-((3R,6S,9S,12R)-6-ethyl-12-methyl-9-(2-((1-methylpiperidin-4-yl)amino)ethyl)-2,5,8,11-tetraoxo-3-phenyl-1,4,7,10-tetraazacyclotetradecan-12-yl)isobutyramide | – | 65% yield | >98% purity | –
11 | N-((3R,6S,9S,12R)-6-ethyl-12-methyl-9-(3-(3-methylguanidino)propyl)-2,5,8,11-tetraoxo-3-phenyl-1,4,7,10-tetraazacyclohexadecan-12-yl)isobutyramide | – | – | – | cyclisation yield (cyclisation step, over 3 steps from 36h, TFA salt): 75% yield over 3 steps
12 | N-((3R,6S,9S,12R)-6-ethyl-12-methyl-9-(3-(3-methylguanidino)propyl)-2,5,8,11-tetraoxo-3-phenyl-1,4,7,10-tetraazacyclotetradecan-12-yl)isobutyramide | – | – | – | isolated yield (whole synthesis, over 4 steps from resin 24, scale of the general procedure 0.1 mmol, TFA salt): 15.4% yield over 4 steps; difficulty met [1]: D-α-phenylglycine was isomerized to L-α-phenylglycine during the solid phase peptide synthesis
